At least one compound was matched to its structure with a doubt left.
Tested on: P3HR-1 EBV-positive lymphoma cells
Experiment: [3H]-thymidine incorporation in EBV-positive lymphoma cells
Type: cell-based, human
Conditions: combination with GC, 72 hours
Protocol: The effect of GOMB to AB was compared on EBV virus-associated tumors. EBV-positive cells from P3HR-1, a human lymphoma cell line, were incubated in growth medium with the specified concentration of GOMB, AB, ganciclovir (GC), or combination of these, for 72 hours, seeded in 96-well plates and pulsed with 1 μCi [^3 H]-thymidine/well during the last 16 hours of exposure to the compounds. Cells were harvested with a cell harvester, using glass microfiber filters. The incorporation of [^3 H]-thymidine was determined by retention of the acid insoluble fraction on filters and is expressed as CPM.

## CCCC(=O)OCOC(=O)CCCC(=O)O [GOMB, mono-(butyroyloxymethyl)glutarate]
  interaction with ganciclovir (GC) in inhibiting proliferation: interact synergistically with GC
